This note sets out measurements from paper PMC3975400.

By UniProt entry, the sequences of proteins in these tests, tags left out. Where a name states a change or a piece, a line headed by the entry shows the natural chain unless it says otherwise. Chains listed by the source or under a name are the forms on record and can include a tag or linker.
HA tagged PKM1 (P14618-2, form named): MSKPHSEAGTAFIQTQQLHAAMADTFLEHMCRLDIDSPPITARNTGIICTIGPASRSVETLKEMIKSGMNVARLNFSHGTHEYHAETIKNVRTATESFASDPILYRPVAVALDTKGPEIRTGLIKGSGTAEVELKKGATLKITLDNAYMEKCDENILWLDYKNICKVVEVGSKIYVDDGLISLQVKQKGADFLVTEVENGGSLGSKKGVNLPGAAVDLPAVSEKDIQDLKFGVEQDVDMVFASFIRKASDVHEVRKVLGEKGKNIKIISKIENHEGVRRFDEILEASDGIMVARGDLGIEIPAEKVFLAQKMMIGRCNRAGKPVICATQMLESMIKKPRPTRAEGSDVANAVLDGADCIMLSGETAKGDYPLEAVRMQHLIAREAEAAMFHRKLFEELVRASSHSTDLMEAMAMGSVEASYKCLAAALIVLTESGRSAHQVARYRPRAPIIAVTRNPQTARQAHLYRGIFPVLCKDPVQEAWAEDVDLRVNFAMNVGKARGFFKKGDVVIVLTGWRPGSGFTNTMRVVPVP

These are yes or no findings as the source states them, for the method shown. Binding seen in cells or lysates may run through a third protein. Some binding calls cover weakened binding; strength is not graded here. Where a sequence is shown, tags or fusion partners need not be part of it.

In the test the target is T1, Flag-tagged HNF4α (UniProt P41235).
T1 sequence: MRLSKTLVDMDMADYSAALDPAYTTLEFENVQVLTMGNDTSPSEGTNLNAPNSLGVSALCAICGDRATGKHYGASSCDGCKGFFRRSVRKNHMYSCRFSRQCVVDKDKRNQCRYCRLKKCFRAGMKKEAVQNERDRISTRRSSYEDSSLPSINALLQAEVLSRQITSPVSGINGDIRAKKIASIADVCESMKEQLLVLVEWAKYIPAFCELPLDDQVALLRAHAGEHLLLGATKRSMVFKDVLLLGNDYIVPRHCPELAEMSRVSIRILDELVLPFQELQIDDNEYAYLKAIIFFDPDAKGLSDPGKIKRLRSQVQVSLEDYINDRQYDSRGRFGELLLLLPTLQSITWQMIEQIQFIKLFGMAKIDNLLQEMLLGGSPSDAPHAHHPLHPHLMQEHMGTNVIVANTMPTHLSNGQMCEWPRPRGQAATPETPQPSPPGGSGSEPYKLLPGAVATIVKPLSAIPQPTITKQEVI
The test can be described thus: co-IP; 200 μg lysate of co-transfected HCT116 cells; precleared with agarose A and G; IgG or Flag antibody for immunoprecipitation, 3 h at 4 °C; Western blot with anti-HA antibody.

For the substance “HA tagged PKM2 (from UniProt P14618-1 1-531) (enzyme)”, the binding entry is listed as “no binding”.
As for “HA tagged PKM1 (from UniProt P14618-2 1-531) (enzyme)”, the binding entry is recorded as “binds”.
